The results in this text go back to paper PMC8512764 (Molecules, 2021).

The first data set in a line: general procedure: Fmoc solid-phase peptide synthesis; H-Gly-2-ClTrt resin; HATU/HOAt/collidine. The following applies: whole synthesis, scale 0.044 mmol, TFA salts.
For the substance H-Asp(tBu)-1-(MPUPA)Amp-Arg(Pmc)-Gly-OH, the crude mass is on record as 35 mg and the crude yield came to 78%.

A short description of another data set: general procedure: Fmoc solid-phase peptide synthesis; H-Asp(tBu)-2-ClTrt resin; HATU/HOAt/collidine. The following applies: whole synthesis, scale 0.044 mmol, TFA salts.
H-Leu-1-(MPUPA)Amp-Val-Asp(tBu)-OH: the crude mass is reported as 33.2 mg and the crude yield stood at 98%.

For the substance H-Val-1-(MPUPA)Amp-Leu-Asp(tBu)-OH, the crude mass was determined as 34.0 mg and the crude yield was determined as 99%.

In the case of H-Val-Gly-1-(MPUPA)Amp-Leu-Asp(tBu)-OH, the crude mass is recorded as 36.0 mg and the crude yield is recorded as 99%.

The nature of the next data set: general procedure: Fmoc solid-phase peptide synthesis; H-Glu(tBu)-2-ClTrt resin; HATU/HOAt/collidine. The following applies: whole synthesis, scale 0.043 mmol, TFA salts.
With H-Leu-1-(MPUPA)Amp-Val-Glu(tBu)-OH, the crude mass was found to be 34.2 mg and the crude yield turned out to be 98%.

H-Val-1-(MPUPA)Amp-Leu-Glu(tBu)-OH: the crude mass is 34.1 mg and the crude yield is 99%.

For H-Val-Gly-1-(MPUPA)Amp-Leu-Glu(tBu)-OH, the crude mass was found to be 36.0 mg and the crude yield is 98%.

Another data set can be described thus: general procedure: Fmoc solid-phase peptide synthesis; 2-chlorotrityl chloride resin preloaded with Asp(tBu), Glu(tBu) or Gly; HATU/HOAt/collidine. The conditions noted are these: late stage modification step, TFA salts.
For the substance c[(MPUPA)Amp-Arg-Gly-Asp], the step yield turned out to be 63%.

On to c[(MPUPA)Amp-Leu-Asp-Val-Gly], for which the step yield is on record as 51%.

For c[(MPUPA)Amp-Leu-Asp-Val], the step yield was 60%.

As for c[(MPUPA)Amp-Leu-Glu-Val-Gly], the step yield is on record as 28%.

With c[(MPUPA)Amp-Leu-Glu-Val], the step yield stood at 56%.

Regarding c[(MPUPA)Amp-Val-Asp-Leu], the step yield is 23%.

As for c[(MPUPA)Amp-Val-Glu-Leu], the step yield is reported as 33%.
